Assay results taken from PMC11794584.
Results are given in words; binding and its absence hold for the method and conditions named. In cells and extracts the contact can be indirect. Some entries that bind do so weakly or less than the wild type. For part of these data: Where a sequence is shown, tags or fusion partners need not be part of it. One block for each substance: values may come before it.

The chains behind the UniProt entries cited, without tags or fusion partners. Where a name states a change or a piece, a line headed by the entry shows the natural chain unless it says otherwise.
UniProt P40763: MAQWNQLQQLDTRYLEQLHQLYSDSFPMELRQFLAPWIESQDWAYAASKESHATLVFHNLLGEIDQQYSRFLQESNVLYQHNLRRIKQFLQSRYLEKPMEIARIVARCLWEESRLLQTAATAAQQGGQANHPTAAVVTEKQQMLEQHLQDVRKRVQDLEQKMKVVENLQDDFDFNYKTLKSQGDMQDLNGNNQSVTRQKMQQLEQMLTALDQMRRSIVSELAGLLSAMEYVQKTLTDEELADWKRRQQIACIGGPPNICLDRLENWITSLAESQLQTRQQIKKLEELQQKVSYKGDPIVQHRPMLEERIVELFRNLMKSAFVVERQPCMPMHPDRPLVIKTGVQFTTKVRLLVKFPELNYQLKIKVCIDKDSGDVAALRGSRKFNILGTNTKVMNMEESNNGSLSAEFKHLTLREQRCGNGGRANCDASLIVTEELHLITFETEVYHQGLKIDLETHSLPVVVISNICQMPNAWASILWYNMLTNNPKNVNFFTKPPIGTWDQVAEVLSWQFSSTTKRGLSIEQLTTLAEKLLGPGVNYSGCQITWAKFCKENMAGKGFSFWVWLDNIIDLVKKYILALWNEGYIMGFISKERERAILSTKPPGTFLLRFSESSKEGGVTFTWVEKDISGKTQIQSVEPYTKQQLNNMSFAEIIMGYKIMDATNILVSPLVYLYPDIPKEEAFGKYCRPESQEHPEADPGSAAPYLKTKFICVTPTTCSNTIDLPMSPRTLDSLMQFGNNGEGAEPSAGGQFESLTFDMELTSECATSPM

How the values were obtained:
[1] = biological target: T1, Cell division cycle associated 7 (CDCA7) (human (endogenous in PC cells)) (UniProt Q9BWT1); experiment: co-IP; PC cell proteins incubated overnight at 4 °C with anti-CDCA7 antibody, protein A + G beads 2 h, western blotting
T1 sequence: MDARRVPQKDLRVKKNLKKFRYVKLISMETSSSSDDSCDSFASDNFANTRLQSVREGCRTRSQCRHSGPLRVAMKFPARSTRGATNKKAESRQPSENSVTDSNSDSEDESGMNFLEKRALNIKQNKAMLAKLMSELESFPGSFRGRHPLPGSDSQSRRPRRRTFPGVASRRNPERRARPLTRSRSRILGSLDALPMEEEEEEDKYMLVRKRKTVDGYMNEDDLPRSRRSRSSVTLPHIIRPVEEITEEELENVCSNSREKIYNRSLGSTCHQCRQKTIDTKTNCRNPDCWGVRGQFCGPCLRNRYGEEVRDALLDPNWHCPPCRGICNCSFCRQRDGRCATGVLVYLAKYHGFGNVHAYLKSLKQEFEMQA

[2] = biological target: T2, flag-tagged CDCA7 protein (UniProt Q9BWT1); experiment: co-IP; immunoprecipitation and western blotting of flag-tagged truncated CDCA7 and his-tagged STAT3 in HEK 293T
T2 sequence: T1 sequence

[3] = biological target: T3, flag-tagged CDCA7 D1 (1-120aa) domain (UniProt Q9BWT1); experiment: as above
T3 sequence: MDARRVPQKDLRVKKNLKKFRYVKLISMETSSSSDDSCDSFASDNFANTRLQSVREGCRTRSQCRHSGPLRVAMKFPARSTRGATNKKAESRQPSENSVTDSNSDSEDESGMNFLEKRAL

binding [1]: binds
Substance: Signal transducer and activator of transcription 3 (STAT3) (from UniProt P40763 1-770)

binding [2]: binds
Substance: his-tagged STAT3 D1 (1-385aa) domain (from UniProt P40763 1-385) (domain or fragment)

binding [3]: binds
Substance: his-tagged STAT3 protein (from UniProt P40763 1-770)
